Results deposited as PubChem BioAssay AID1671195 (Yale University, 2021).

Test: 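Genes whose knockdown alters LDL uptake in liver cancer cells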 (primary screen)
System: human Huh7 hepatoma cells
Reagent: siRNA pool against human genes, 18 nM
Duration: about 2 to 2.5 days of knockdown, then 8 h LDL uptake
Challenge: DiI-labelled LDL at 30 µg/ml for 8 h, in lipoprotein-deficient serum medium
Detection: 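Fluorescent LDL signal imaged in cells, scaled to the plate median, robust z-score for each replicate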
Reading the numbers: robust z-score: higher = more LDL uptake after knockdown
Rule for the call: 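Active when two or more replicates show a robust z-score above 2 or below -2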
Here is one part, drawn at random, of about 22,000 reagents tested. About 1,510 of all reagents (6.9%) were called active. 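Active includes knockdowns raising or lowering LDL uptake; positive z-scores mean more uptake, negative mean less.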 A number with no mark means an inactive call.

| Target gene | robust z-score, replicate 1 | robust z-score, replicate 2 | robust z-score, replicate 3 |
| --- | --- | --- | --- |
| IER5L (GeneID 389792) | 0.519 | 0.925 | 0.514 |
| PIK3R4 (GeneID 30849) | -0.493 | -0.538 | -0.89 |
| ZNF425 (GeneID 155054) | -0.994 | -0.978 | -0.599 |
| GAS2L1P2 (GeneID 340508) | -0.837 | -0.262 | -1.01 |
| CTTNBP2 (GeneID 83992) | -0.52 | -0.626 | -1.42 |
| C19orf18 (GeneID 147685) | 4.07 | -0.269 | -0.0309 |
| OS9 (GeneID 10956) | -0.14 | -1.03 | 0.0474 |
| PCLO (GeneID 27445) | 0.464 | -0.513 | -0.16 |
| STON1 (GeneID 11037) | 0.0316 | -0.812 | 1.12 |
| ADAMTS2 (GeneID 9509) | -1.58 | -1.32 | -1.67 |
| RPS12P3 (GeneID 344423) | 0.099 | 0.00196 | 0.0394 |
| RPS19 (GeneID 6223) | -1.76 | -0.377 | -0.911 |
| CLASP2 (GeneID 23122) | 0.127 | 0.0477 | 0.81 |
| CALCA (GeneID 796) | 0.477 | 0.426 | -0.197 |
| LOC402279 (GeneID 402279) | 0.748 | 0.34 | 0.511 |
| DYNC1H1 (GeneID 1778) | -0.656 | -0.42 | -0.417 |
| TCFL5 (GeneID 10732) | 0.809 | 0.904 | 1.08 |
| LOC441787 (retired record) (GeneID 441787) | -1.07 | -1.33 | -1.07 |
| ARG2 (GeneID 384) | -1.43 | -1.37 | -1.38 |
| APEH (GeneID 327) | -0.44 | 0.123 | 0.289 |
| LOC441076 (retired record) (GeneID 441076) | -0.312 | -0.22 | -0.554 |
| HLA-DRB1 (GeneID 3123) | 1.28 | -0.633 | 0.751 |
| LOC441015 (retired record) (GeneID 441015) | -0.964 | -1.34 | -1 |
| CZ1P-ASNS (GeneID 107986827) | 1.78 | 0.748 | 1.04 |
| CCN3 (GeneID 4856) | 3.69 (active) | 2.49 | 3.9 |
| BCL11B (GeneID 64919) | -1.63 | -1.47 | -1.41 |
| POU3F4 (GeneID 5456) | -0.586 | -0.488 | -0.459 |
| BCL9L (GeneID 283149) | -0.622 | -0.406 | -0.648 |
| LAYN (GeneID 143903) | 0.379 | 0.244 | 0.74 |
| RPL6P1 (GeneID 440587) | 0.468 | 0.966 | 0.892 |
| MAP9 (GeneID 79884) | 0.0508 | -0.666 | 0.00569 |
| CUEDC2 (GeneID 79004) | 0.0482 | -0.454 | 0.112 |
| PTK6 (GeneID 5753) | 0.244 | 0.0597 | 0.311 |
| SLC15A3 (GeneID 51296) | 0.636 | 0.428 | 0.807 |
| ZKSCAN8P2 (GeneID 222701) | -0.853 | -0.783 | -0.984 |
| NECTIN4 (GeneID 81607) | -0.977 | -0.946 | -0.691 |
| RPSAP56 (GeneID 645656) | -2.45 (active) | -2.66 | -2.89 |
| C12orf56 (GeneID 115749) | -0.374 | 1.57 | 0.902 |
| PIGK (GeneID 10026) | -0.926 | -0.458 | -0.597 |
| BOD1L1 (GeneID 259282) | -0.734 | -0.691 | -0.273 |
| SLC25A5P7 (GeneID 442255) | -0.782 | -0.73 | -0.952 |
| LOC440569 (retired record) (GeneID 440569) | 0.919 | 1.27 | 1.29 |
| LCK (GeneID 3932) | -0.503 | 0.271 | 0.298 |
| NDUFS2 (GeneID 4720) | 1.84 | 2.03 | 0.993 |
| LOC391347 (retired record) (GeneID 391347) | 0.494 | 0.573 | 0.689 |
| LOC441655 (retired record) (GeneID 441655) | -0.437 | -0.522 | -0.129 |
| NEK8 (GeneID 284086) | 0.117 | -0.44 | -0.605 |
| LOC441462 (retired record) (GeneID 441462) | 1.19 | 0.584 | 0.835 |
| GHITM (GeneID 27069) | -0.492 | 1.06 | -0.246 |
| SLC22A2 (GeneID 6582) | -1.69 | -1.82 | -1.9 |
| OR2L13 (GeneID 284521) | -1.4 | -1.26 | -1.34 |
| LOC402300 (retired record) (GeneID 402300) | -0.914 | -0.091 | -0.407 |
| LOC391824 (retired record) (GeneID 391824) | 0.137 | 0.408 | 0.28 |
| PGAP3 (GeneID 93210) | -1.24 | -0.293 | -0.989 |
| SRPX (GeneID 8406) | -1.09 | -1.09 | -2.18 |
| GTSF1 (GeneID 121355) | 0.847 | 0.454 | 0.02 |
| LOC400992 (retired record) (GeneID 400992) | 2.35 (active) | 2.08 | 2.19 |
| CYP4X1 (GeneID 260293) | -1.3 | -0.784 | -0.7 |
| SPDYE3 (GeneID 441272) | 0.242 | 0.868 | 1 |
| OPCML (GeneID 4978) | -1.1 | -1.58 | -1.24 |
| LOC402098 (retired record) (GeneID 402098) | 0.327 | -0.0322 | 0.518 |
| PSTK (GeneID 118672) | 0.465 | 0.673 | 0.0922 |
| BACH1 (GeneID 571) | 1.48 (active) | 1.91 | 3.04 |
| LINC01120 (GeneID 389043) | 0.102 | 0.371 | 0.558 |
| LOC401016 (retired record) (GeneID 401016) | 0.851 | 1.11 | 1.46 |
| TMEM151A (GeneID 256472) | 0.724 | 0.651 | 0.459 |
| IL10RA (GeneID 3587) | -1.18 | -1.54 | -1.68 |
| OR2C1 (GeneID 4993) | 0.511 | 0.225 | 0.529 |
| SNX1 (GeneID 6642) | 1.16 | 0.54 | 0.387 |
| PIGM (GeneID 93183) | 0.866 | -0.301 | -0.193 |
| LOC440848 (retired record) (GeneID 440848) | -0.143 | -0.278 | -0.301 |
| TAC4 (GeneID 255061) | 1.55 | 1.45 | 1.23 |
| EIF6 (GeneID 3692) | 0.0645 | 0.57 | 1.93 |
| RABEPK (GeneID 10244) | -0.626 | -1.17 | -0.274 |
| NPIPB2 (GeneID 729978) | -2.03 (active) | -2.01 | -2.21 |
| SUPT16H (GeneID 11198) | -0.973 | 1.38 | 0.568 |
| PSMG3 (GeneID 84262) | 0.0314 | -0.108 | -0.519 |
| FLJ41455 (retired record) (GeneID 441441) | -0.841 | -1.34 | -1.08 |
| CRACR2B (GeneID 283229) | 0.291 | 0.479 | 0.404 |
| CRYBG3 (GeneID 131544) | 0.145 | 1.24 | 0.73 |
| LOC388388 (retired record) (GeneID 388388) | -0.955 | -0.806 | -0.998 |
| CLPP (GeneID 8192) | -0.741 | -0.171 | -0.263 |
| LRRIQ3 (GeneID 127255) | 0.0931 | -0.147 | 0.323 |
| NOS2 (GeneID 4843) | -0.139 | -0.727 | -0.405 |
| RNF217 (GeneID 154214) | 0.288 | 0.712 | 0.674 |
| PCNX2 (GeneID 80003) | -0.448 | -0.482 | -0.459 |
| PTPN18 (GeneID 26469) | -0.0369 | -0.857 | -0.0787 |

8 neighbouring reagents already listed:
| Target gene | robust z-score, replicate 1 | robust z-score, replicate 2 | robust z-score, replicate 3 |
| --- | --- | --- | --- |
| RPSAP56 (GeneID 645656) | -2.45 (active) | -2.66 | -2.89 |
| C12orf56 (GeneID 115749) | -0.374 | 1.57 | 0.902 |
| PIGK (GeneID 10026) | -0.926 | -0.458 | -0.597 |
| BOD1L1 (GeneID 259282) | -0.734 | -0.691 | -0.273 |
| SLC25A5P7 (GeneID 442255) | -0.782 | -0.73 | -0.952 |
| LOC440569 (retired record) (GeneID 440569) | 0.919 | 1.27 | 1.29 |
| LCK (GeneID 3932) | -0.503 | 0.271 | 0.298 |
| NDUFS2 (GeneID 4720) | 1.84 | 2.03 | 0.993 |
